Binding data for 5 molecules are collected here from paper doi:10.1101/2020.04.23.058487.

The chains behind the UniProt entries cited, without tags or fusion partners.
UniProt P05804: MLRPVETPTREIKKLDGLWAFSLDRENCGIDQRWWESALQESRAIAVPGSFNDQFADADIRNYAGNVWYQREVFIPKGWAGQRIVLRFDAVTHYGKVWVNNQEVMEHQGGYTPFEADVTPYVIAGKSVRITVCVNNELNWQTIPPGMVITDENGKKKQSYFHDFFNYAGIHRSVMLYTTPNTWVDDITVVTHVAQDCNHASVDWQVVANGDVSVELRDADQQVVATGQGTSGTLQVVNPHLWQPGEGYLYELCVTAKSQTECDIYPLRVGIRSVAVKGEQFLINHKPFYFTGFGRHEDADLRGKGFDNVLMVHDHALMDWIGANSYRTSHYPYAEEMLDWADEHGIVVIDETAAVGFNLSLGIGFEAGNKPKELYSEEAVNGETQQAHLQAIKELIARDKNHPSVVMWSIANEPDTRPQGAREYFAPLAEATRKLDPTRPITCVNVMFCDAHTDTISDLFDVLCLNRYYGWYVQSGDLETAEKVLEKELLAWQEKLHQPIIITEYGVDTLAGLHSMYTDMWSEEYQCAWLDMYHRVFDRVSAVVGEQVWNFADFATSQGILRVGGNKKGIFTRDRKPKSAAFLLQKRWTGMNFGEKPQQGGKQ

Results are given in words; binding and its absence hold for the method and conditions named. Binding seen in cells or lysates may run through a third protein. Some results given as binding are weak or reduced against the parent protein; the word gives no strength. For some of these results: Sequences can lack the tags named with a protein.

In experiment [1] the target is T1, nVenus-ITPK1 (Arabidopsis thaliana) (UniProt Q9SBA5).
T1 sequence: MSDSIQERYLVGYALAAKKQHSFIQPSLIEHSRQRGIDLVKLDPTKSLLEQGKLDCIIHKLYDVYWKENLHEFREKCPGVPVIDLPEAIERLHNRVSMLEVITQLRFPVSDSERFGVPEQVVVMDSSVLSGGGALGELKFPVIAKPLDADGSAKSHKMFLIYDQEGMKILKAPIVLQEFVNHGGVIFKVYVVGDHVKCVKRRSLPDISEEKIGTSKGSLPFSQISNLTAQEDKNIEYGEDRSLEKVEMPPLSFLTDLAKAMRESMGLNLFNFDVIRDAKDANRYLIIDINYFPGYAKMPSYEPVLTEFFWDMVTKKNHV
Nature of the experiment: split reporter.

For experiment [2], the target named is T2, nVenus-TIR1 (Arabidopsis thaliana) (UniProt Q570C0).
T2 sequence: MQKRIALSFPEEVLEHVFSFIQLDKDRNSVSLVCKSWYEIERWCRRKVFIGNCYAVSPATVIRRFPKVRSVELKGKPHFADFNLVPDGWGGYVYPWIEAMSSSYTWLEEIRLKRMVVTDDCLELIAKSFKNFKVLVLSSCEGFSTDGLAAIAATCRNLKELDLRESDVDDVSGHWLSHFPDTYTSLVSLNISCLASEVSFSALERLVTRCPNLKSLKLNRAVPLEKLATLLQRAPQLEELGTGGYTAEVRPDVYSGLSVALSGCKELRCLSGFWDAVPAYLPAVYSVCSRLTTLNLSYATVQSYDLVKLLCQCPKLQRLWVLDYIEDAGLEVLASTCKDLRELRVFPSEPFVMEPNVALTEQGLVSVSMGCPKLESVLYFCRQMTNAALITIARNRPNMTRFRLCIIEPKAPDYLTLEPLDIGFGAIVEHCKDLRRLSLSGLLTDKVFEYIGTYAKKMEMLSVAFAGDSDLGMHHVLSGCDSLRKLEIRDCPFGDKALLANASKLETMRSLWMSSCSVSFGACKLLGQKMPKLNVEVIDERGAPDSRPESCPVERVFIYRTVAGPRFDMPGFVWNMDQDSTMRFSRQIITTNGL
Kind of experiment: split reporter.

Experiment [3] addresses T3, cCFP-TIR1 (Arabidopsis thaliana) (UniProt Q570C0).
T3 sequence: T2 sequence
Nature of the experiment: split reporter.

The target in experiment [4] is T4, cCFP-ITPK1 (Arabidopsis thaliana) (UniProt Q9SBA5).
T4 sequence: T1 sequence
Nature of the experiment: split reporter.

The target in experiment [5] is T5, ITPK1-G3GFP (Arabidopsis thaliana) (UniProt Q9SBA5).
T5 sequence: T1 sequence
Kind of experiment: co-IP.

With “cCFP-tagged GUS (control) (from UniProt P05804 1-603) (enzyme)”, the binding entry in experiment [1] and in experiment [2] was “no binding” in each case.
With “nVenus-tagged GUS (control) (from UniProt P05804 1-603) (enzyme)”, the binding result in experiment [3] and in experiment [4] was “no binding” in each case.

B1: TIR1 (TRANSPORT INHIBITOR RESPONSE1), endogenous (protein, UniProt Q570C0 1-594)
chain: T2 sequence
Consider B1, for which the binding result in experiment [5] is on record as “binds”.

B2: nVenus-TIR1 (protein, UniProt Q570C0 1-594)
chain: T2 sequence
Take B2: the binding result in experiment [4] was “binds”.

B3: cCFP-TIR1 (protein, UniProt Q570C0 1-594)
chain: T2 sequence
Turning to B3, in experiment [1], the binding entry is “binds”.
